This note sets out measurements from paper PMC8042443.

Sequences of proteins named here, by UniProt entry; tags and fusion partners are left off.
UniProt Q13574: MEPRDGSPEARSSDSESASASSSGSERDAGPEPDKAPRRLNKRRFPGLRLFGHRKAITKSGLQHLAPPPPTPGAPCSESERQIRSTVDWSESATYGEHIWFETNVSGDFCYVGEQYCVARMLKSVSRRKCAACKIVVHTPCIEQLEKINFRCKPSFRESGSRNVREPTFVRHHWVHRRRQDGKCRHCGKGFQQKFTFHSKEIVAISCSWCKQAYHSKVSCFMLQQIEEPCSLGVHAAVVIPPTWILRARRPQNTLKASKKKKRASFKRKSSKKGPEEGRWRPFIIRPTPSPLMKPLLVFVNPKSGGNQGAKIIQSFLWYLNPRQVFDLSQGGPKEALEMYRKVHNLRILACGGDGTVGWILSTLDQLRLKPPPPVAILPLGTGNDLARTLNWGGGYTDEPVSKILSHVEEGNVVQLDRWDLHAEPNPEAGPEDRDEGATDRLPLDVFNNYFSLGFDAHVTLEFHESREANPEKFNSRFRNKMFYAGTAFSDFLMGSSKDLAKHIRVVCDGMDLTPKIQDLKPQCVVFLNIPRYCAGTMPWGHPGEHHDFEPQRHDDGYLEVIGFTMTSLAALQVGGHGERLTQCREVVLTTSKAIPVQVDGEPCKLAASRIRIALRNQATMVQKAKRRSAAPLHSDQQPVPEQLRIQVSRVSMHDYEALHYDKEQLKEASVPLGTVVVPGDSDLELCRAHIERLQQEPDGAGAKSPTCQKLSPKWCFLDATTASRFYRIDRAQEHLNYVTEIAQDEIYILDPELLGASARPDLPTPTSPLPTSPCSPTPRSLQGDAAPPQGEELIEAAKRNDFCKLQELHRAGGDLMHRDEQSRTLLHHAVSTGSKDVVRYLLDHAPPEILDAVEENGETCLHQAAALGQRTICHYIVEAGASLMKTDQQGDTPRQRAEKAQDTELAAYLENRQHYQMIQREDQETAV

No constants are given. Whether binding was seen depends on the method and setting. In cells and extracts the contact can be indirect. Some entries that bind do so weakly or less than the wild type. Tags and fused reporters may be left off the sequences shown.

This assay addresses T1, GST fusion protein of the α1-syntrophin PDZ domain (UniProt Q61234).
T1 sequence: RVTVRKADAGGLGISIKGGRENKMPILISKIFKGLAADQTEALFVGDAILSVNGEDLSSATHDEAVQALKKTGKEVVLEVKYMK
Kind of assay: pull-down; GST fusion proteins immobilised on beads, incubated 1 to 2 h at 4 °C with lysates of MEFs expressing HA-tagged DGKζ constructs; washed at least four times with ice-cold lysis buffer; bound DGKζ detected by anti-HA immunoblot; in some panels cells were treated with vehicle, 100 nM PMA, or 1 μM Gö6976 before PMA; only the target purified. (A western blot detects proteins with antibodies after separation by electrophoresis.)

For “HA-tagged wild-type diacylglycerol kinase ζ (from UniProt Q13574 1-928) (enzyme)”, the binding entry is “binds”.
